# Some of the results follow. Further columns of the screen follow, without active or inactive calls. The list favours compounds with an active or inconclusive main result. Potencies come from curve fits of mixed quality, noted in brackets.
# Experiment: qHTS Assay for Lipid Storage Modulators in Drosophila S3 Cells;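 as to cell number change: cells counted by Cell Tracker Red CMTPX staining in the red channel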
# Settings: BODIPY lipid droplet fluorescence, 18-24 h; for cell number change: measured here: cell count max response, cells fed with added oleic acid
# Method in brief: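 Drosophila S3 cells got compounds at several concentrations plus oleic acid (400 uM solution). Laser-scanning cytometry with 488 nm excitation read lipid droplets at 500-530 nm and cells at 575-640 nm. Percent activity was relative to 20 uM Triacsin C.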
# [1] = measured here: cell number channel AC50, cells fed with added oleic acid
# [2] = measured here: lipid fluorescence (Fed channel) AC50, cells fed with added oleic acid
SMILES,cell number change,AC50 [1],AC50 [2]
Cc1c(NC(=O)C(c2ccccc2)c2ccccc2)cccc1C(=O)O,5.73%,–,–
Cc1cccc(NC(=O)N[C@@H](C)C(=O)O)c1,3.25%,–,–
COc1ccccc1N1C(=O)CCC1(C#N)c1ccccc1 (stereo not given),-10%,–,–
O=C(CNC(=O)c1ccccc1Cl)OCC(=O)N1CCc2ccccc21,2.94%,"0.82 µM [falling, single point]","6.51 µM [rising, single point]"
Cc1c(NC(=O)C(C)OC(=O)CCC2CCCC2)c(=O)n(-c2ccccc2)n1C (stereo not given),2.62%,–,"18.4 µM [falling, single point]"
Oc1cccc(/C=N\Nc2nncc(-c3ccccc3)n2)c1,-17.3%,–,"2.06 µM [falling, single point]"
Cc1ccc2cc(CN(C(=O)c3ccco3)c3ccccc3C)c(=O)[nH]c2c1,-15%,–,"1.3 µM [rising, full curve, poor fit]"
CCCc1nc2ccccc2n1CCOC,11.2%,–,"16.4 µM [falling, partial curve]"
CSc1cccc(NC(=O)c2cc(S(=O)(=O)N3CCCCC3)c[nH]2)c1,28.1%,–,"18.4 µM [falling, single point]"
Cc1ccc(S(=O)(=O)/N=C(\CN2CCOCC2)N2CCCC2)cc1,12.2%,–,"0.651 µM [falling, single point]"
Cc1ccc(C(=O)Nc2nc3ccc(S(C)(=O)=O)cc3s2)cc1C,-60.3%,"9.2 µM [falling, partial curve]","11.6 µM [falling, partial curve]"
C(=N\Nc1nc2ccccc2[nH]1)/c1ccc2ncccc2c1,-9.65%,–,"2.31 µM [rising, partial curve]"
CCCN1C(=O)/C(=C\c2nc3ccccc3c(=O)[nH]2)c2ccccc21,-16.2%,–,"32.6 µM [falling, single point]"
CCN(CC)CCNC(=O)c1sc2nc(-c3ccccc3)cn2c1C,-8.07%,–,"18.4 µM [falling, single point]"
CCn1c(SCC(=O)Nc2ccc3c(c2)c2ccccc2n3CC)nnc1-c1ccco1,–,"0.116 µM [rising, partial curve, poor fit]","0.116 µM [rising, full curve]"
CCOc1cc(/C=N/Nc2cccc(C(=O)O)c2)ccc1OCC(=O)N1CCCCC1,31.8%,"0.411 µM [rising, full curve]","2.91 µM [rising, partial curve]"
CCCCn1c(N)c(N(CC)C(=O)C2CCN(C(=O)c3ccccc3C)CC2)c(=O)[nH]c1=O,16.6%,–,"0.0326 µM [rising, full curve, poor fit]"
CC(C)(C)c1cc(S(=O)(=O)CCc2ccccn2)cc(C(C)(C)C)c1F,12%,–,"6.51 µM [rising, single point]"
CN(CC(=O)Nc1ccccc1Cl)C(=O)c1ccc(COc2ccccc2)cc1,1.58%,–,–

# Nothing new here: entries from further up.
SMILES,cell number change,AC50 [1],AC50 [2]
CC(C)(C)c1cc(S(=O)(=O)CCc2ccccn2)cc(C(C)(C)C)c1F,12%,–,"6.51 µM [rising, single point]"
CN(CC(=O)Nc1ccccc1Cl)C(=O)c1ccc(COc2ccccc2)cc1,1.58%,–,–

# More results follow.

SMILES,cell number change,AC50 [1],AC50 [2]
CCn1c(-c2ccoc2C)n[nH]c1=S,180%,"20.6 µM [rising, single point]",–
O=C(OCn1ncc(Cl)c(Cl)c1=O)c1cccc(C(F)(F)F)c1,–,"6.51 µM [falling, single point]","6.51 µM [falling, single point]"
O=[N+]([O-])c1ccc(F)cc1F,2.85%,"0.411 µM [falling, partial curve]","0.651 µM [rising, full curve]"
COc1ccc(C(C)(C)C)cc1NC(=O)CSc1ncn[nH]1,-11.5%,–,"0.326 µM [falling, full curve, poor fit]"
Cc1ccc(C(=O)c2ccccc2C(=O)OCC(=O)NCCc2ccccc2)cc1,-22.2%,–,"14.6 µM [falling, partial curve]"
O=C(COC(=O)C1CCN(S(=O)(=O)c2cccs2)CC1)c1ccccc1,182%,"29.1 µM [rising, single point]",–
CCOCCCNC(=O)c1ccc2nc(-c3ccc(OC)c(OC)c3)c(-c3ccc(OC)c(OC)c3)nc2c1,-13.1%,–,"11.6 µM [falling, partial curve]"
CC(=O)NC[C@H]1CN(c2ccc(N3CCOCC3)c(F)c2)C(=O)O1,33.6%,"13 µM [rising, partial curve]","5.17 µM [rising, full curve]"
CC(C)CC(COCc1ccc(Cl)cc1)N1CCN(C(=O)c2ccc(Cl)cc2Cl)CCC1=O (stereo not given),-56.4%,"23.1 µM [falling, partial curve]","23.1 µM [falling, partial curve]"
COc1ccc(CCn2c(N)c(C(=O)NCc3ccco3)c3nc4ccccc4nc32)cc1OC,-78.5%,"20.6 µM [falling, partial curve]","16.4 µM [falling, single point]"
O=C(C1=C[C@@H](C2CC2)C[C@@H](OCCCCO)O1)N1CCOCC1,-3.31%,–,"29.1 µM [falling, single point]"
CCOc1ccc(S(=O)(=O)N(CC(=O)NCC(F)(F)F)Cc2ccco2)cc1,2.96%,–,"1.46 µM [falling, full curve, poor fit]"
COc1cc(CC(=O)NC2CCCc3ccccc32)cc(OC)c1OC (stereo not given),–,"0.461 µM [falling, partial curve]",–
Cc1cc(C=O)c(C)n1-c1cc(C(F)(F)F)ccc1N1CCOCC1,-20.3%,–,"0.58 µM [rising, single point]"
FC(F)(F)c1cccc(-c2ccc(/C=N/Nc3nncc(-c4ccccc4)n3)o2)c1,-26%,–,"0.461 µM [falling, full curve, poor fit]"
CN(C)S(=O)(=O)c1ccc(N2CCCC2)c(C(=O)NNC(=O)COc2ccccc2F)c1,–,–,"6.51 µM [rising, single point]"
O=C(O)c1c2c(nc3ccc(S(=O)(=O)N4CCC(C(=O)N5CCCCC5)CC4)cc13)CCCC2,8.91%,–,"29.1 µM [falling, single point]"
O=C(Cn1nc(C(F)(F)F)c2c1CCCC2)NCc1ccco1,3.45%,–,"1.16 µM [falling, full curve, poor fit]"

# From PubChem BioAssay AID2685 (National Center for Advancing Translational Sciences (NCATS), 2010)
